# Measured values published in the supplement of paper PMC10338343.
# ± gives the standard deviation. The list shows a part of the results, in another mix than the full data. Many of these values have a large error.
# Tested on: MIWI (PIWIL1) piRISC loaded with Kctd7 piRNA (30 nt)
# Test: pre-steady-state target cleavage rate (min^-1); MIWI and MILI are mouse PIWI proteins and EfPiwi is from a freshwater sponge; tags in brackets are library labels; higher = faster piRNA-guided slicing of the target
# Conditions: guide: Kctd7 piRNA 5'p-UGUUAAUCUCUCAGAGAAGGUGACAGUGAU; auxiliary factor: 500 nM mouse GTSF1
# Summary of the method: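 Active affinity-purified piRISC (1 nM) loaded with one synthetic guide was mixed with a transcribed, DNA-blocked target RNA library (0.1 nM), with or without 500 nM GTSF1 partner protein, in HEPES–potassium acetate buffer at 33 °C for 0–8 or 0–960 min. Uncleaved targets were sequenced, normalised to depth and to weakly complementary targets, and pooled across three trials, with k3 capped at 0.0001 min^-1. The pre-steady-state cleavage rate was determined with a burst-and-steady-state fit.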
row,Sequence,pre-steady-state target cleavage rate
1,UACACUGUCUGGUUCUCUGAGAGAUUUUGA,0.0006 ± 0.015
2,UACACUGUCACCUUCUGACAGAGAUUUUGA,0.000559 ± 0.023
3,UAGUGACAGUCCUUCUCUGUCAGAUUAACA,0.000945 ± 0.0071
4,UAGUGACACACCUUGAGUGAGAGAUUAAGA,0.000345 ± 0.034
5,UCCACUGUCACCUUCUCUGAGAGAUUAACA,0.68 ± 0.028
6,UAGUGACACACCUUCUCUGAGAGUAUAAGA,0.00284 ± 0.0047
7,UAGACUGUCACCGUCUCUGAGAGAUUAACA,0.769 ± 0.037
8,UAGUGACAGUGGAAGAGACAGAUAUUAACA,0.000339 ± 0.017
9,UAGUGUGUCAGGAUCUCUGAGAGAUUAUGA,0.000641 ± 0.012
10,AUCACUGUCACCUUCUCUGACUCAUUAAGA,0.00187 ± 0.0046
11,UAGUGACACACCUUCUCUGAGACUUUAUGA,0.000315 ± 0.017
12,UAGUGAGUCACCUUCUCUGAGAGAUUAUGA,0.088 ± 0.019
13,UAGUCUGUCACCUCCUCUGAGAGAUUAACA,0.726 ± 0.038
14,UAGUGACAGUGCUUCUUCUGAGAGAUUAACA,0.000995 ± 0.0056
15,UAGACUGUCACCAACUCUGAGAGAUUAUGA,0.00147 ± 0.0054
16,UAGUGACAGACCUUCUCUGAGGAGAUUAACA,0.00268 ± 0.0037
17,UAGUGAGUCAGGUUCUCUGAGAGAUUUUGA,0.00174 ± 0.0064
18,UAGUCUGUCUCCAUCUCUGAGAGAUUAACA,0.509 ± 0.034
19,UAGUGACAGUGCUUCUCAGAGAGAUUUACA,0.00114 ± 0.0059
20,UAGUGACAGUCCAACUCUGAGAGAUUAACA,0.000326 ± 0.0088
21,UAGACUGUCACCUUCUCUGAGAGAUUAAUA,0.414 ± 0.035
22,UAGUGACAGACCUUCUCUGAGGAUUAACA,0.000818 ± 0.0082
23,UAGUGACACACCUUCUGAGAGAGAUUAUGA,0.00153 ± 0.0098
24,UUCUCUGUGACCUUCUCUGAGAGAUUAACA,0.491 ± 0.023

row,Sequence,pre-steady-state target cleavage rate
1,UAGUGACAGUGGAACUCUGAGAGAUUAUCA,0.00014 ± 0.038
2,UAGUGACAGUGGUUCUCUGGAGAUUAACA,0.00157 ± 0.0045
3,UAGUGUGUCACCUUCUCUGUCUGAUUUUGA,0.000808 ± 0.018
4,AUCACUGUCACCUUCUCUGUCUGAUUAACA,0.00339 ± 0.0039
5,UUCACUGUCACCUGCUCUGAGAGAUUAACA,0.645 ± 0.031
6,UAGUGACAGUGGAACUCUGAGAGCAUUAACA,0.00024 ± 0.02
7,UAGUGACAGACCUUCAGUGAGAGAUUUUGA,0.000514 ± 0.016
8,UAGACUGUGACCAUCUCUGAGAGAUUAACA,0.359 ± 0.025
9,UACACUGUCACCUUCUCACUGAGAUUUUGA,0.00346 ± 0.0055
10,UAGUGACUCACCUUGACUGAGAGAUUAUGA,0.000313 ± 0.028
11,UAGUGACAGUGCUUCUCUCAGUGAUUAACA,0.000893 ± 0.0049
12,UAGACUGUCACCUUCUCUGACUCAUUAUGA,0.00019 ± 0.013
13,UUCACACUCACCUUCUCUGAGAGAUUUUGA,0.0972 ± 0.024
14,UAGUGACAGUGGAUCUCUGGAGAUUAACA,0.000828 ± 0.0037
15,UAGUCUGUCACCUUCUCUGAGUGAUUUUGA,0.00286 ± 0.0043
16,UAGACUGUCACCUUCUCUGACUCAUUUUGA,0.000687 ± 0.0089
17,UUCACCGUCACCUUCUCUGAGAGAUUAACA,0.698 ± 0.03
18,UAGUGACAGACCUUCUCUGAAGAUUAACA,0.00135 ± 0.0052
19,UUCAGACUCACCUUCUCUGAGAGAUUAACA,0.472 ± 0.035
20,AUGACUGUCACCUUCUCUGAGAGAUUAAGA,0.205 ± 0.028
21,UAGUGAGUCACCUUCAGAGAGAGAUUUUGA,0.00316 ± 0.006
22,UAGUGACAGUGGUCUCUGAGAGAUUAACA,0.000322 ± 0.011
23,UAGUGACAGUGGUUUCUGAGAGAUUAACA,< 0.0001
24,UACACAGUCACGUUCUCUGAGAGAUUAACA,0.679 ± 0.035

# Exported with tabs: entries from further up.
row	Sequence	pre-steady-state target cleavage rate
17	UUCACCGUCACCUUCUCUGAGAGAUUAACA	0.698 ± 0.03
23	UAGUGACAGUGGUUUCUGAGAGAUUAACA	< 0.0001

# At a glance, part of the list above:
row,Sequence,pre-steady-state target cleavage rate
20,UAGUGACAGUCCAACUCUGAGAGAUUAACA,0.000326 ± 0.0088
21,UAGACUGUCACCUUCUCUGAGAGAUUAAUA,0.414 ± 0.035

# Remaining list, next part

row,Sequence,pre-steady-state target cleavage rate
1,UAGUGACAGUGCUUCUCUGAGAAGAUUAACA,0.002 ± 0.0038
2,AUCACUGUCACCUCCUCUGAGAGAUUAACA,0.802 ± 0.033
3,UAGUGACAGUGGAAGAGAGAGAGAUUCACA,0.00016 ± 0.038
4,UAGAGUGACACCUUCUCUGAGAGAUUAACA,0.55 ± 0.023
5,UAGUGACAGUGCUUCUCGAGAGAUUAACA,0.00157 ± 0.0066
6,UAGUGACAGUGCUUCUCUGAGUGAUUAACA,0.00177 ± 0.0039
7,UAGUGUGUCACCUUGACUGAGAGAUUAUGA,0.00151 ± 0.0069
8,UAGUGACAGACCAUCUCUGAGUGAUUAACA,0.00232 ± 0.0036
9,UAGUGAGUCACCUUGACUGAGAGAUUUUGA,0.000739 ± 0.017
10,UAGUGACAGUCCUACUCUGAGAGAUUAAGA,0.000584 ± 0.0081
11,UAGUGACACACCUUGACUGAGAGAUUUUGA,0.000795 ± 0.015
12,UAGUGACAGUCCUUCUCUGUGAGAUUAUGA,0.000413 ± 0.011
13,UAGUGUGUCACCUUGAGUGAGAGAUUAUGA,0.000237 ± 0.046
14,UUCACUGUCACCUUCUCUGAGUCAUUAAGA,0.00191 ± 0.0035
15,UAGUGACAGUCCUACUGUGAGAGAUUAACA,0.000137 ± 0.022
16,UAGUGACAGUGCUUCUCUGGAGAGAUUAACA,0.000355 ± 0.014
17,UAGUGACAGUGGAAGAGUCAGAGUUUAACA,0.000101 ± 0.036
18,UAGUGACUGUCCUUCUCUGAGAGAUUAUGA,0.00171 ± 0.009
19,UACAACUGUCACCUUCUCUGAGAGAUUAACA,0.744 ± 0.042
20,UAGUGACAGACCUUGUCAGAGAGAUUAACA,0.00194 ± 0.0066
21,UAGUGUGUCACCUUCUCUGAGUCAUUAAGA,0.00409 ± 0.0048
22,UAGUGACUCACCUUCUCUGUCUGAUAUUGA,0.000198 ± 0.045
23,UACACUGUCACCUUCUCUGAGACUAUAUGA,0.00209 ± 0.005
24,UAGUGACACACCUUGACUGAGAGAUUAAGA,0.00167 ± 0.0059
